{"source": "PubChem BioAssay AID652272 (Drosophila RNAi Screening Center, 2013)", "test": "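Finding fly genes that regulate Hedgehog signal transduction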 (primary screen)", "system": "Drosophila clone 8 (Cl8) cells", "reagents": "long dsRNA against Drosophila genes", "measurement": "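Firefly light from a Hedgehog-responsive ptc promoter reporter and Renilla reference light, both read on a plate reader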", "scale": "firefly Hh reporter signal: higher = more ptc reporter light; Renilla reference signal: higher = more Renilla control light", "call rule": "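Called a hit if the two-replicate mean z-score lies below -2 or above +3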", "meaning of the calls": "active = hit: reporter lowered or raised; inactive = not a hit", "note": "In all, the deposit lists about 21,000 reagents; below is a random part of those with a known target gene and a result. Of all reagents, 503 (2.4%) got an active call. 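Raw plate light values, not normalised; calls rest on replicate z-scores that were not deposited; hits include reporter decreases as well as increases.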 Not stated in the record: the amount of reagent, the time to read-out."}
{"target": "Pen (Pendulin)", "DRSC id": "DRSC03396", "firefly Hh reporter signal, replicate 1": 68880, "firefly Hh reporter signal, replicate 2": 37991, "Renilla reference signal, replicate 1": 2779, "Renilla reference signal, replicate 2": 1696, "call": "inactive"}
{"target": "CG14323", "DRSC id": "DRSC14802", "firefly Hh reporter signal, replicate 1": 1.29e5, "firefly Hh reporter signal, replicate 2": 94985, "Renilla reference signal, replicate 1": 2466, "Renilla reference signal, replicate 2": 247, "call": "inactive"}
{"target": "CG4558", "DRSC id": "DRSC18369", "firefly Hh reporter signal, replicate 1": 89923, "firefly Hh reporter signal, replicate 2": 1.00e5, "Renilla reference signal, replicate 1": 1461, "Renilla reference signal, replicate 2": 2368, "call": "inactive"}
{"target": "Ptip (PAX transcription activation domain interacting protein)", "DRSC id": "DRSC10660", "firefly Hh reporter signal, replicate 1": 99980, "Renilla reference signal, replicate 1": 1450, "Renilla reference signal, replicate 2": 2400, "call": "inactive"}
{"target": "Ptip (PAX transcription activation domain interacting protein)", "DRSC id": "DRSC11048", "firefly Hh reporter signal, replicate 1": 45283, "Renilla reference signal, replicate 1": 3302, "Renilla reference signal, replicate 2": 1672, "call": "active"}
{"target": "CG31460", "DRSC id": "DRSC14370", "firefly Hh reporter signal, replicate 1": 82787, "firefly Hh reporter signal, replicate 2": 57708, "Renilla reference signal, replicate 1": 3476, "Renilla reference signal, replicate 2": 2464, "call": "inactive"}
{"target": "Tsp42Ei (Tetraspanin 42Ei)", "DRSC id": "DRSC06189", "firefly Hh reporter signal, replicate 1": 95371, "firefly Hh reporter signal, replicate 2": 51596, "Renilla reference signal, replicate 1": 2376, "Renilla reference signal, replicate 2": 4964, "call": "inactive"}
{"target": "CG6073", "DRSC id": "DRSC15962", "firefly Hh reporter signal, replicate 1": 1.79e5, "firefly Hh reporter signal, replicate 2": 7.46e5, "firefly Hh reporter signal, replicate 3": 1.25e5, "Renilla reference signal, replicate 1": 4309, "Renilla reference signal, replicate 2": 45058, "call": "inactive"}
{"target": "CG9269", "DRSC id": "DRSC16465", "firefly Hh reporter signal, replicate 1": 89255, "firefly Hh reporter signal, replicate 2": 69712, "Renilla reference signal, replicate 1": 3445, "Renilla reference signal, replicate 2": 2404, "call": "inactive"}
{"target": "CG34444", "DRSC id": "DRSC06435", "firefly Hh reporter signal, replicate 1": 92362, "firefly Hh reporter signal, replicate 2": 53172, "Renilla reference signal, replicate 1": 1905, "Renilla reference signal, replicate 2": 3264, "call": "inactive"}
{"target": "RacGAP84C (Rac GTPase activating protein at 84C)", "DRSC id": "DRSC12630", "firefly Hh reporter signal, replicate 1": 67620, "firefly Hh reporter signal, replicate 2": 74708, "Renilla reference signal, replicate 1": 2900, "Renilla reference signal, replicate 2": 2103, "call": "inactive"}

Look-ups from the list.
CG34444 [DRSC06435], firefly Hh reporter signal, replicate 1 → 92362
CG31460 [DRSC14370], firefly Hh reporter signal, replicate 1: 82787
Under “Renilla reference signal, replicate 2”, CG14323 [DRSC14802] reads 247

The listing continues.
{"target": "His3.3A (Histone H3.3A)", "DRSC id": "DRSC03343", "firefly Hh reporter signal, replicate 1": 43938, "firefly Hh reporter signal, replicate 2": 17013, "Renilla reference signal, replicate 1": 829, "Renilla reference signal, replicate 2": 1032, "call": "inactive"}
{"target": "PolE2 (DNA polymerase epsilon subunit 2)", "DRSC id": "DRSC09737", "firefly Hh reporter signal, replicate 1": 66707, "firefly Hh reporter signal, replicate 2": 52680, "Renilla reference signal, replicate 1": 4116, "Renilla reference signal, replicate 2": 2635, "call": "inactive"}
{"target": "Pgi (Phosphoglucose isomerase)", "DRSC id": "DRSC07507", "firefly Hh reporter signal, replicate 1": 78556, "firefly Hh reporter signal, replicate 2": 38032, "Renilla reference signal, replicate 1": 2976, "Renilla reference signal, replicate 2": 1780, "call": "inactive"}
{"target": "poe (purity of essence)", "DRSC id": "DRSC03593", "firefly Hh reporter signal, replicate 1": 1.25e5, "firefly Hh reporter signal, replicate 2": 41691, "Renilla reference signal, replicate 1": 4994, "Renilla reference signal, replicate 2": 2388, "call": "inactive"}
{"target": "ppk28 (pickpocket 28)", "DRSC id": "DRSC19919", "firefly Hh reporter signal, replicate 1": 82203, "firefly Hh reporter signal, replicate 2": 2.09e5, "Renilla reference signal, replicate 1": 2419, "Renilla reference signal, replicate 2": 7636, "call": "inactive"}
{"target": "CG14448", "DRSC id": "DRSC11705", "firefly Hh reporter signal, replicate 1": 77781, "firefly Hh reporter signal, replicate 2": 79720, "Renilla reference signal, replicate 1": 2699, "Renilla reference signal, replicate 2": 2279, "call": "inactive"}
{"target": "CG5339", "DRSC id": "DRSC04496", "firefly Hh reporter signal, replicate 1": 69266, "firefly Hh reporter signal, replicate 2": 60091, "Renilla reference signal, replicate 1": 3285, "Renilla reference signal, replicate 2": 2519, "call": "inactive"}
{"target": "RpS3A (Ribosomal protein S3A)", "DRSC id": "DRSC17168", "firefly Hh reporter signal, replicate 1": 65305, "firefly Hh reporter signal, replicate 2": 28999, "Renilla reference signal, replicate 1": 5159, "Renilla reference signal, replicate 2": 1923, "call": "active"}
{"target": "CG5290", "DRSC id": "DRSC10501", "firefly Hh reporter signal, replicate 1": 82880, "firefly Hh reporter signal, replicate 2": 49261, "Renilla reference signal, replicate 1": 3994, "Renilla reference signal, replicate 2": 1962, "call": "inactive"}
{"target": "Gr22f (Gustatory receptor 22f)", "DRSC id": "DRSC00076", "firefly Hh reporter signal, replicate 1": 7.11e5, "firefly Hh reporter signal, replicate 2": 3.40e5, "Renilla reference signal, replicate 1": 35364, "Renilla reference signal, replicate 2": 13296, "call": "inactive"}
